Measurements reported in PubChem BioAssay AID493014 (National Center for Advancing Translational Sciences (NCATS), 2011).
“And” between values parts separate entries of the source, which are not always exact repeats. Equal values may be shown once. The list shows a part of the results. The main result of the screen is listed elsewhere. These columns were measured beside it and carry no call. Most of these compounds were active or inconclusive in the main read-out, so they are no random draw. Words in brackets tell the shape of the fitted curve; partial curves, single points and poor fits give uncertain potencies.

Experiment: qHTS Assay to Find Inhibitors of Chronic Active B-Cell Receptor Signaling
Details: ABC-DLBCL IkBa-CBG/CBR reporter, luminescence ratio (green luciferase fused to IkBa over red control in TMD8 lymphoma cells), 4 h
In short: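 Doxycycline induced both beetle luciferases in TMD8 lymphoma cells; IKK-driven degradation limits the IkappaBalpha-fused green signal, while red luminescence normalises for cell number and nonspecific effects. Compounds tested up to 46 uM, 4 hrs.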

[1] = measured here: CBR red luminescence, cell number
[2] = measured here: IkBa-CBG green luminescence

N#C/C(=C\c1cccnc1)c1ccccc1[N+](=O)[O-]
AC50 [1]: 31.6 µM [falling, single point]

COc1ccc(NS(=O)(=O)c2coc(C(N)=O)c2)cc1Cl
AC50 [1]: 11.6 µM [rising, partial curve, poor fit]

O=[N+]([O-])c1cnc(Sc2ccncn2)s1
AC50 [1]: 5.62 µM [rising, single point]
AC50 [2]: 5.62 µM [falling, single point]

O=C(Nc1ccccc1)Nc1nc(-c2ccc(F)c(F)c2)cs1
AC50 [1]: 35.5 µM [falling, single point]

Cn1c(CN2CCCCC2)nc2cc(NC(=O)c3ccc(Cl)cc3)ccc21
AC50 [1]: 35.5 µM [falling, single point]

COc1ccc(/C=N/Nc2nnc(C)n2N)cc1OC(C)=O
AC50 [1]: 35.5 µM [falling, single point]

Cc1ccc2nc(NC(=O)CS(=O)(=O)Cc3ccccc3)sc2c1
AC50 [1]: 35.5 µM [falling, single point]

COc1ccc(/C=C(\NC(=O)c2ccc([N+](=O)[O-])cc2)C(=O)N2CCOCC2)cc1
AC50 [1]: 20 µM [rising, partial curve, poor fit]

COc1ccccc1-n1c(CCn2nc(C)c(Br)c2C)n[nH]c1=S
AC50 [1]: 18.4 µM [falling, single point]

S=C(NNC(=S)Nc1ccccc1)Nc1ccccc1
AC50 [1]: 10 µM [falling, partial curve, poor fit]

O=c1[nH]c2ccccc2nc1/C=C/c1ccc(O)cc1
AC50 [1]: 14.1 µM [falling, single point]

CC1=C(C(=O)Nc2ccccc2F)C(c2ccsc2)C2=C(CC(C)(C)CC2=O)N1 (stereo unspecified)
AC50 [1]: 3.26 µM [falling, partial curve, poor fit]

O=C(/C=C\Nc1ccccc1Br)c1ccc2c(c1)OCO2
AC50 [1]: 12.6 µM [falling, partial curve]

COC(=O)Cc1nc2ccccc2[nH]1
AC50 [1]: 7.94 µM [falling, partial curve, poor fit]

N#Cc1c(NC(=O)CSc2ncnc3sccc23)oc(-c2ccco2)c1-c1ccco1
AC50 [2]: 1 µM [rising, full curve, poor fit]

C=CCC[C@@H](Cc1ccc(F)cc1)C(=O)OC[C@H](C)NC(=O)[C@@H](CC=C)CC(=O)N(CCO)Cc1ccccc1
AC50 [1]: 10.3 µM [falling, partial curve, poor fit]

S=c1nc(C2CC2)[nH]c2ccccc12
AC50 [1]: 5.8 µM [rising, single point]
AC50 [2]: 10.3 µM [falling, partial curve, poor fit]

CCCCSc1nnc(-c2ccccc2N)c(=O)[nH]1
AC50 [1]: 35.5 µM [falling, single point]

CCCCCCC(=O)Nc1nc(C)c(-c2csc(Nc3cc(OC)ccc3OC)n2)s1
AC50 [1]: 17.8 µM [falling, partial curve, poor fit]

Cn1cccc1C1(C(F)(F)F)NCCNC1=O (stereo unspecified)
AC50 [1]: 6.51 µM [rising, single point]

COc1cccc(-c2cc(C(=O)Nc3cnn(Cc4ccc(F)cc4)c3)no2)c1
AC50 [1]: 8.91 µM [falling, partial curve]

O=C(Oc1ccc2c(c1)OCO2)c1cc2c(s1)CCC2
AC50 [1]: 35.5 µM [rising, single point]

Cc1cc(C)nc(Nc2nc(=O)c3ccccc3s2)n1
AC50 [1]: 8.91 µM [falling, partial curve, poor fit]

Nc1ncnc2c1ncn2C1OC(CO)C(O)C1O (stereo unspecified)
AC50 [1]: 15.8 µM [rising, partial curve]
AC50 [2]: 35.5 µM [falling, partial curve, poor fit]

CN(C)c1ccc(-c2ccc([C@H]3[C@@H]4C=CCC[C@@]4(C)C(=O)N3Cc3ccccc3)c(F)c2)cc1
AC50 [1]: 22.4 µM [rising, single point]

Cc1ccc(CNc2ncc(-c3ccc4c(c3)OCO4)n2C)cc1
AC50 [1]: 14.1 µM [rising, single point]

Cc1ccccc1C(=O)OCc1cnc(Cl)s1
AC50 [1]: 17.8 µM [rising, single point]

CCCC12CN3CCN(CC(C3)/C1=N\NC(=O)c1ccccc1Cl)C2
AC50 [1]: 3.55 µM [falling, full curve, poor fit]

CCN(CC(=O)Nc1c(F)cccc1F)C(=O)c1ccc(-c2ccc(C(C)=O)cc2)o1
AC50 [1]: 2.91 µM [rising, full curve, poor fit]

COC(=O)C1=C(C)N(CCC2=CCCCC2)C(=O)C1
AC50 [1]: 0.00411 µM [falling, full curve, poor fit]

Cc1ccccc1/C=N/NC(=O)Cn1cnc([N+](=O)[O-])n1
AC50 [1]: 6.51 µM [rising, single point]

COc1cccc(-c2ccc3ncnc(NCc4ccc5c(c4)OCO5)c3c2)c1
AC50 [1]: 29.1 µM [falling, single point] and 13 µM [falling, partial curve, poor fit]

c1ccn(-c2ccc(-c3ccn[nH]3)cc2)c1
AC50 [1]: 2.24 µM [rising, partial curve]

CCOc1ccc(-c2cc(CCCC(=O)NCCc3ccc(OC)c(OC)c3OC)no2)cc1
AC50 [1]: 22.4 µM [falling, partial curve, poor fit]

Cc1cc(C)nc(SC(C(=O)O)c2ccccc2)n1 (stereo unspecified)
AC50 [1]: 5.17 µM [rising, partial curve, poor fit]

CCn1cc([N+](=O)[O-])c(C(=O)N2N=C(c3ccccc3)CC2c2ccc([N+](=O)[O-])cc2)n1 (stereo unspecified)
AC50 [1]: 1.64 µM [rising, partial curve, poor fit]

Cc1nc(N2CCOCC2)[nH]c(=O)c1[N+](=O)[O-]
AC50 [1]: 3.98 µM [rising, full curve, poor fit]

COc1ccc(-c2cc(-c3cccs3)c(C#N)c(SCC(=O)NCc3ccco3)n2)cc1
AC50 [1]: 11.2 µM [rising, partial curve]
AC50 [2]: 12.6 µM [falling, partial curve, poor fit]

Oc1ccccc1/C=N/Nc1cccc2cccnc12
AC50 [1]: 10 µM [falling, single point]

CCN(C(=O)COC(=O)/C(=C/c1ccccc1)n1nnnc1C)C1CCCCC1
AC50 [1]: 3.26 µM [falling, full curve]

CCOC(=O)CSc1nnc(CSc2nc(C)cc(C)n2)n1Cc1ccco1
AC50 [1]: 0.13 µM [rising, full curve, poor fit]

O=C(CN1CCc2cc3c(cc2C1)OCCCO3)Nc1cccc(Br)c1
AC50 [1]: 17.8 µM [falling, single point]

Cc1cc(C)n(-c2nc(-c3cccc(Cl)c3)cs2)n1
AC50 [1]: 14.1 µM [rising, partial curve, poor fit]

O=C(Nc1ncc([N+](=O)[O-])s1)C1COc2ccccc2O1 (stereo unspecified)
AC50 [1]: 0.891 µM [falling, full curve]

COc1cc(OC)cc(-c2cc3ccc(OC)cc3cn2)c1
AC50 [1]: 23.1 µM [falling, partial curve]

O=C(NCC(=O)N1CCN(Cc2ccc3c(c2)OCO3)CC1)c1ccccc1F
AC50 [1]: 6.51 µM [rising, single point]

COc1ccc(Nc2cc(C)nc3ccc(OC)cc23)cc1
AC50 [1]: 3.55 µM [falling, full curve]

CC(=O)N1CCc2cc(S(=O)(=O)N3CCCCCC3)ccc21
AC50 [1]: 22.4 µM [rising, partial curve, poor fit]

Cc1ccc(Nc2nnc(SCC(=O)c3cc4ccccc4o3)s2)cc1C
AC50 [1]: 2.59 µM [rising, partial curve, poor fit]

CC(C)(C)N1C(=O)[C@H]2[C@@H](c3ccc(Br)cc3)N3C(=O)N(c4ccccc4)C(=O)[C@@]3(Cc3ccccc3)[C@H]2C1=O
AC50 [1]: 25.9 µM [falling, partial curve, poor fit]

CCc1ccc2c(c1)C1(C(=O)N2)N2CCCC2C(C(=O)c2ccc3ccccc3c2)C12C(=O)Nc1ccccc12 (stereo unspecified)
AC50 [1]: 16.4 µM [falling, single point]

O=[N+]([O-])c1ccc(N/N=C2/CCCCC2c2ccccn2)cc1 (stereo unspecified)
AC50 [1]: 16.4 µM [falling, partial curve]

O=C(CSc1nnc(CNc2ccc(F)cc2)n1CC1CCCO1)Nc1ccccc1 (stereo unspecified)
AC50 [1]: 29.1 µM [falling, single point]

N=c1oc2cc(O)ccc2cc1C(=O)Nc1ccc(Br)cc1
AC50 [1]: 0.1 µM [falling, full curve]

Cc1cc(NC(=O)CCC(=O)N(CC(=O)NC2CCCC2)Cc2ccc(F)cc2)no1
AC50 [1]: 0.731 µM [rising, full curve]

COc1cc(NC(=O)CN(c2ccc(C)cc2)S(=O)(=O)c2c(C)noc2C)cc(OC)c1
AC50 [1]: 12.6 µM [falling, partial curve, poor fit]

O=C(Nc1cccc(O)c1)c1cccc(NC(=O)c2cccs2)c1
AC50 [1]: 25.1 µM [falling, single point]

COCC(C)n1c(COc2ccccc2F)nnc1SCc1c(C)noc1C (stereo unspecified)
AC50 [1]: 29.1 µM [falling, single point]

Cc1c(Cl)cccc1NC(=O)CCC(=O)c1cccs1
AC50 [1]: 35.5 µM [rising, partial curve, poor fit]

CC(C)NC(=O)CCS(=O)(=O)c1cccc2nonc12
AC50 [1]: 6.51 µM [rising, single point]

COc1ccc(S(=O)(=O)N2N=C(c3ccc(NS(C)(=O)=O)cc3)CC2c2ccco2)cc1 (stereo unspecified)
AC50 [1]: 35.5 µM [falling, single point]

Cc1[nH]n(-c2ccc([N+](=O)[O-])cc2)c(=O)c1C=NCCN1CCN(C(=O)c2ccc(Br)cc2)CC1
AC50 [1]: 5.8 µM [falling, full curve, poor fit]
